# Literature values as cited in PMC12640937, “Integrating drug effects on individual cardiac ionic currents and cardiac action potentials to understand nonclinical translation to clinical ECG changes” (Frontiers in Pharmacology, 2025).
# pIC50: −log10 of the molar value.
# Key:
# [1] = calculated with MW and protein binding; ref Johannesen et al., 2016; cited from earlier work
# INaL (NaV1.5 channels) = conditions: read-out: INaL IC50; prior study; veratridine; 36 °C; ref Crumb et al., 2016; cited from earlier work
smiles,measurement,setting,value
CCN(CC)CC(=O)Nc1c(C)cccc1C [lidocaine],free clinical Cmax,[1],2900 nM
same,pIC50,INaL (NaV1.5 channels),4.97
